This test has as its target T1, endogenous MIC60 (rat brain) (rat (endogenous in rat brain)) (UniProt Q3KR86).
T1 sequence: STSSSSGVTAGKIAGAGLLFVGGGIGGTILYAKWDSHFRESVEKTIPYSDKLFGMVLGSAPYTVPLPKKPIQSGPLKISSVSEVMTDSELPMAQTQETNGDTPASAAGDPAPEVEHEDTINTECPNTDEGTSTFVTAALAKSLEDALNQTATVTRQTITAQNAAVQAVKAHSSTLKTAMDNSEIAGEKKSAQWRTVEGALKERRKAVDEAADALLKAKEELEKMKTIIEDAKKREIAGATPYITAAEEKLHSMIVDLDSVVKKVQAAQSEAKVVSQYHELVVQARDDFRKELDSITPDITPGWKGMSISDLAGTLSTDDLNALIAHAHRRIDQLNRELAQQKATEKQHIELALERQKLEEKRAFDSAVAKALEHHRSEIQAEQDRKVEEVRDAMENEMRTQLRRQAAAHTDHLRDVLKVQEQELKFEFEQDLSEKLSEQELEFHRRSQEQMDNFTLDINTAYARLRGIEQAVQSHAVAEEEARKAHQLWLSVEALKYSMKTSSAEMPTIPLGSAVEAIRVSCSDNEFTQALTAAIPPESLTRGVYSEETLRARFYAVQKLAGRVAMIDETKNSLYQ
As to the kind of experiment: co-IP; endogenous proteins from rat brain lysate; pre-cleared, 2 h with the antibody to MIC60 at 4 °C, then overnight with Protein-G agarose beads; Western blot for PDE2A. (In western blotting, separated proteins are transferred to a membrane and probed.)

No constants are given. Whether binding was seen depends on the method and setting. Binding seen in cells or lysates may run through a third protein. Some results given as binding are weak or reduced against the parent protein; the word gives no strength.

B1: endogenous PDE2A (rat brain) (enzyme, UniProt Q01062 1-928)
chain: MVLVLHHILIAVVQFLRRGQQVFLKPDEPPPQPCADSLQDALLSLGAVIDIAGLRQAAKDALSAVLPKVETVYTYLVDGESRLVCEDPPHELPQEGKIREAVISRKRLSCDGLGPSDLLGKPLARLVAPLAPDTQVLVIPLLDKETGTVAAVILVHCGQLSDSEEQSLQVVEKHALVALQRVQALQQRRPEAVQNTSADPSEDQKDEKGYTAHDRKILQLCGELYDLDATSLQLKVLRYLQQETQATHCCLLLVSEDNLQLSCKVIGEKVLGEEVSFPLTMGRLGQVVEDKQCIQLKDLTSDDVQQLQNMLGCELRAMLCVPVISRATDQVVALACAFNKLGGDFFTDEDERAIQHCFHYTGTVLTSTLAFQKEQKLKCECQALLQVAKNLFTHLDDVSVLLQEIITEARNLSNAEICSVFLLDQNELVAKVFDGGVVDDESYEIRIPADQGIAGHVATTGQILNIPDAYAHPLFYRGVDDSTGFRTRNILCFPIKNENQEVIGVAELVNKINGPWFSKFDEDLATAFSIYCGISIAHSLLYKKVNEAQYRSHLANEMMMYHMKVSDDEYTKLLHDGIQPVAAIDSNFANFTYTPRSLPEDDTSMAILSMLQDMNFINNYKIDCPTLARFCLMVKKGYRDPPYHNWMHAFSVSHFCYLLYKNLELSNYLEDIEIFALFISCMCHDLDHRGTNNSFQVASKSVLAALYSSEGSVMERHHFAQAIAILNTHGCNIFDHFSRKDYQRMLDLMRDIILATDLAHHLRIFKDLQKMAEVGYDRNNKQHHRLLLCLLMTSCDLSDQTKGWKTTRKIAELIYKEFFSQGDLEKAMGNRPMEMMDREKAYIPELQISFMEHIAMPIYKLLQDLFPKAAELYERVASNREHWTKVSHKFTIRGLPSNNSLDFLDEEYEVPDLDVTRAPVNGCCSLEG
As to B1, the binding result is reported as “binds”.

(Values after publication PMC7578833.)
